Where “and” joins values, the source holds several entries; their conditions need not be identical. Equal entries are not always repeated. The whole screen tested about 2,000 compounds, of which fewer than 10 were called active.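 Rule for the calls: active = growth inhibition of at least 75% in every replicate, which also brings the mean inhibition to 75% or more; inconclusive = mean inhibition 75% or more but some replicate under 75%; inactive = the rest.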 The list shows a part of the results.
assay: growth inhibition of PfHsp90-dependent yeast, primary screen, antimalarial PfHsp90 inhibitor project, S. cerevisiae, BacTiter-Glo luminescence (AID 504594);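 note: 0% = DMSO neutral control wells and 100% = 20 µM radicicol control wells; higher value means stronger growth inhibition because the sign is flipped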; conditions: S. cerevisiae expressing PfHsp90, BacTiter-Glo growth, 48 h; at 9.4 µM; active compounds read high

Growth inhibition, inactive:
CC1COc2c(N3CCN(C)CC3)c(F)cc3c(=O)c(C(=O)O)cn1c23 (stereo unspecified) 0.903%
CCN(CC)C(=O)c1sc(NC(=O)c2c(OC)cccc2OC)c(C#N)c1C 4.33%
O=C(O)/C=C/c1cnc[nH]1 -3%
NCc1ccccc1COc1ccccc1 -10.1%
COCCCNc1nc2c([nH]1)c(=O)[nH]c(=O)n2C -6.16%
CC12CN3CC(C)(CN(C1)C3c1ccc(Cl)cc1Cl)C2=O (stereo unspecified) -10.6%
Cc1cc(O)c(C(=O)Cc2csc(C)n2)c(O)c1 -6.85%
O=c1[nH]cnc2[nH]ncc12 4.2%
CN(C)C(=O)Oc1cccc([N+](C)(C)C)c1 -4.89% and 1.83%
CN1CCC(OC(c2ccccc2)c2ccccc2)CC1 -13.4%
NC(CO)C(=O)NNCc1ccc(O)c(O)c1O (stereo unspecified) 23%
COc1ccc2cc(C(=O)OC(C)C)sc(=O)c2c1OC -7.81%
CN(C)CCCN1c2ccccc2CCc2ccccc21 0.476%
COc1cccc(OCC(O)CO)c1 (stereo unspecified) -3.88%
CCOC(=O)N1c2ccccc2C=CC1OCC (stereo unspecified) -5.21%
CC(C)CN1CCN(Cc2cccn2-c2ccccn2)CC1CCO (stereo unspecified) 7.76%
CCC(=O)c1ccc(OCc2ccc(C(=O)OC)cc2)cc1 -0.292%
COc1cc(/C=C/C(=O)CC(=O)/C=C/c2ccc(O)c(OC)c2)ccc1O 0.395%
CC1(C)C(C=C(Cl)Cl)C1C(=O)N1CCN(Cc2ccccc2)CC1 (stereo unspecified) 3.99%
CNC(=O)Oc1ccc2c(c1)[C@]1(C)CCN(C)[C@@H]1N2C -18.9%
CC1(C)S[C@@H]2[C@H](NC(=O)Cc3ccccc3)C(=O)N2[C@H]1C(=O)O 13.9%
Cc1cc(=O)c2c(O)c(O)ccc2o1 -4.06%
CCCCCCCC(=O)OCC(=O)[C@@]1(O)CC[C@H]2[C@@H]3CCC4=CC(=O)CC[C@]4(C)[C@H]3[C@@H](O)C[C@@]21C 12.2%
COc1cc(OC)c(-c2nc3cnccc3n2C)cc1OC -1.54%
O=C1CC(c2ccc(F)cc2)Cc2nc(NCC3CCCO3)ncc21 (stereo unspecified) 6.43%
CNCCCN1c2ccccc2CCc2ccccc21 5.11%
C[n+]1ccccc1/C=N/O 18.1% and 2.57%
COc1ccc(CN2CCCCC2C(=O)Nc2ccc(OC)c(OCC(C)C)c2)cc1OC (stereo unspecified) 0.843%
Cc1cccc(Nc2ccccc2C(=O)O)c1C -9.21%
CCC(C)n1ncn(-c2ccc(N3CCN(c4ccc(OCC5COC(Cn6cncn6)(c6ccc(Cl)cc6Cl)O5)cc4)CC3)cc2)c1=O (stereo unspecified) -1.74%
CCOc1ncnc2c1[nH]c1ccccc12 -0.202%
COc1ccc(C2C3=C(CC(C)(C)CC3=O)N(C)C3=C2C(=O)CC(C)(C)C3)cc1 5.42%
C#CCN(C)CCCOc1ccc(Cl)cc1Cl -6.26%
Cc1c(NC(=O)c2cccs2)cccc1[N+](=O)[O-] -8.17%
Cc1nc2cc3ccccc3cc2c(=O)[nH]1 3.18%
COc1cccc(CN2C(=O)N(C(C)C)C(N(O)C(=O)NC(C)C)C2(C)C)c1OC (stereo unspecified) -1.39%
COc1ccc2c(c1)[nH]c1c(=O)n(Cc3ccccn3)cnc12 3.01%
Cn1c(=O)[nH]c(=O)c2c1nc(NCc1ccco1)n2CCCc1ccccc1 2.13%
CC1(C)CC(=O)c2cnc(NC(=O)C3CCCC3)nc2C1 0.802%
Cn1c(=O)c2c(ncn2CCO)n(C)c1=O -6.89%
COc1ccc(-n2cc(CNCc3cccnc3)c(-c3cccc(F)c3)n2)cc1 -18.3%
Cc1ccc2c(c1)C(O)(CC(=O)/C=C/C=C/c1ccccc1)C(=O)N2 (stereo unspecified) -7.55%
COc1ccccc1OCC(=O)O -2.4%
CCCCC/C=C\C[C@H](O)/C=C/c1cccc(C[C@H](O)CCCCO)n1 -18.4%
CCSC(SCC)[C@H](O)[C@@H](O)[C@H](O)[C@H](O)CO -1.6%
Cc1ccc(NCCC(=O)c2ccccc2)cc1Cl 9.45%
O=C(CCSc1ccccc1)N1CCCC1 6.81%
COc1ccccc1C(CCN(Cc1ccccc1)C(C)=O)c1ccco1 (stereo unspecified) 0.547%
COc1ccc2[nH]c(=O)c(CN(C(=O)c3ccco3)C(C)C)cc2c1 0.309%
CCCCNc1ccc(C(=O)OCCN(C)C)cc1 -3.14%
Cc1ccccc1C(=O)Nc1ccccc1C(=O)NCC(C)C -1.12%
O=C(/C=C/c1ccccc1)/C=C/c1ccccc1 -3.32%
CC(OC(=O)c1cc(=O)[nH]c2ccccc12)C(=O)c1ccccc1 (stereo unspecified) 9.25%
Cc1cnc(C(=O)NCCc2ccc(S(=O)(=O)NC(=O)NC3CCCCC3)cc2)cn1 -1.17%
CCc1cc2c(=O)c(-c3nc(C)cs3)c(CCCC(=O)O)oc2cc1O -4.53%
CC1(C)C2CCC1(C(=O)O)c1nc3ccccc3nc12 (stereo unspecified) 1.35%
CC(=O)SC1CC2=CC(=O)CCC2(C)C2CCC3(C)C(CCC34CCC(=O)O4)C12 (stereo unspecified) 4.6%
COC(=O)C1=C(C)NC(C)=C(C(=O)OCCN(C)Cc2ccccc2)C1c1cccc([N+](=O)[O-])c1 (stereo unspecified) -5.9%
COc1ccc(-c2nnc(-c3cc4c(ccc5ccccc54)oc3=O)o2)cc1 11.1%
CC(C)CN1CC(C(=O)O)CC1=O (stereo unspecified) -3.33%
CNc1c2c(nn1C)CCCC2 -5.98%
COc1c2ccoc2nc2c(OC)cccc12 0.792%
CC(C)=CCC(C)(C)/C=N/NC(N)=O -2.22%
NCCCC(N)(C(=O)O)C(F)F (stereo unspecified) -9.5%
COc1cc(/C=C(\C#N)C(=O)N2CCc3ccccc32)ccc1O -16%
Cc1ccccc1C(OCCN(C)C)c1ccccc1 (stereo unspecified) 9.44%
O=C1[C@@H]2CSCN2C(=O)CN1Cc1ccc(F)cc1 -1.67%
COc1cc(C(=O)Nc2ccc(N(C)C)cc2)c([N+](=O)[O-])cc1OC 6.43%
C=C(C)C(=O)Nc1ccc(NC(C)C)cc1 1.87%
C#C[C@]1(O)CC[C@H]2[C@@H]3CCC4=C(CCC(=O)C4)[C@H]3CC[C@@]21C -5.22%
CC(C)(C)NCC(O)c1cc(O)cc(O)c1 (stereo unspecified) -6.86%
COc1ccc(Cc2nc(-c3ccc(Br)cc3)no2)cc1 -25.2%
CCc1oc2ccccc2c1C(=O)c1cc(Br)c(O)c(Br)c1 31.9%
CC(C)NC(=O)c1ccc(C(C)C)cc1 -3.19%
O=C1C2C3C=CC(C4CC34)C2C(=O)N1/N=C/c1ccc(-c2ccc([N+](=O)[O-])cc2)o1 (stereo unspecified) 22.9%
c1ccc(Nc2cccc3c(Nc4ccccc4)cccc23)cc1 13.8%
CC(C)(C)NCC(O)COc1cccc2c1C[C@H](O)[C@H](O)C2 (stereo partly specified) -3.05%
COCCc1ccc(OCC(O)CNC(C)C)cc1 (stereo unspecified) 12.3%
O=C1CN(O)C=C2N=c3ccccc3=C2N1c1ccc([N+](=O)[O-])cc1 9.89%
CC(=O)NC(C(=O)NCC(N)=O)C(C)C (stereo unspecified) 4.26%
CC(C)Cc1ccc(C(C)C(=O)O)cc1 (stereo unspecified) -4.69%
CC(C)Oc1cccc(C(=O)N2CCCC2)c1 -0.92%
C[N+](C)(C)CCOP(=O)([O-])OC[C@H](O)CO 1.98%
O=S(=O)(CCc1nc2ccccc2[nH]1)c1ccc(Cl)cc1 -3.99%
CN(C)C(=O)CCCCCCCCC(=O)N(C)C 24%
CC(=O)NC(Cc1c[nH]c2ccccc12)C(=O)N/N=C/c1ccccc1 (stereo unspecified) 13.4%
Cc1nc(NCc2ccco2)c(C#N)c2c1COC(C)(C)C2 15.9%
COc1ccc(-c2nc(NC(C)=O)sc2-c2ccc(OC)cc2)cc1 -7.91%
CCOC(=O)C(=Cc1ccccc1OC)C(=O)OCC -1.25%
COc1cc(C2Nc3ccccc3NC3=C2C(=O)CC(c2ccc(OC)c(OC)c2)C3)ccc1O (stereo unspecified) -2.33%
Cc1ccccc1-c1coc2cc(O)ccc2c1=O 4.28%
COc1ccc(C(=O)Nc2ccc(OC)c([N+](=O)[O-])c2)cc1Br -4.48%
Fc1ccccc1CNCCC(Cc1ccccc1)c1ccc2c(c1)OCO2 (stereo unspecified) -1.57%
CCC1CCc2c(sc(NC(=O)c3cccnc3)c2C(N)=O)C1 (stereo unspecified) 1.79%
COc1cc(C(=O)CCN2CCC(c3ccccc3)C2)cc(OC)c1OC (stereo unspecified) 2.23%
Cn1c([N+](=O)[O-])cnc1COC(N)=O 0.181%
Cc1ccc2nc3c(cc(C(=O)NCC4CCCO4)c(=N)n3CCCOC(C)C)c(=O)n2c1 (stereo unspecified) 4.47%
Cc1coc2c1c(C)cc1oc(=O)c(Cc3ccccc3)c(C)c12 2.68%
Cc1cc(C)c2c(CCl)cc(=O)oc2c1 -4.42%
C=C1C2(C(=O)Nc3ccc(SC(F)F)cc3)CCC(C2)C1(C)C (stereo unspecified) -17.6%
CC[N+]1(CC)CC2=Cc3ccccc3CC2C1 (stereo unspecified) -5.09%

Part of the list above in order of count of non-hydrogen atoms, low to high:
Growth inhibition, inactive:
COc1cccc(OCC(O)CO)c1 (stereo unspecified) -3.88%
Cc1nc2cc3ccccc3cc2c(=O)[nH]1 3.18%
CC(C)Oc1cccc(C(=O)N2CCCC2)c1 -0.92%
Cc1cc(O)c(C(=O)Cc2csc(C)n2)c(O)c1 -6.85%
CCc1oc2ccccc2c1C(=O)c1cc(Br)c(O)c(Br)c1 31.9%
COc1cc(C(=O)CCN2CCC(c3ccccc3)C2)cc(OC)c1OC (stereo unspecified) 2.23%
Fc1ccccc1CNCCC(Cc1ccccc1)c1ccc2c(c1)OCO2 (stereo unspecified) -1.57%

From PubChem BioAssay AID504594 (Broad Institute, 2011)
